Results as given in US5162302A, “Endocrine manipulation to improve body composition of poultry” (University of Delaware, priority 1990, dated 1992).
At least one peptide structure holds a part that was inferred or is arguable (an end, a ring closure or a residue).

Assays:
[1] = Three daily intramuscular injections of GRF and dietary T3: growth, feed efficiency, body composition (Example 1); assay type: in vivo, broiler chickens
Method: Bird management. One day-old broiler cockerels (Ross x Arbor acre) were obtained from a commercial hatchery (Perdue Hatchery, Salisburg, MD). Five birds were randomly assigned to each of 24 pens during the first three weeks. Birds were housed in a Petersime battery-brooder and maintained in a environmentally controlled room on a 20L:4D light/dark cycle. The temperature was held at 33° C. for the first week and reduced 3° C. at weekly intervals. During this period, the chicks were provided with commercial starter ration (3100 kcal ME/kg and 22% crude protein) and water ad libitum.
At 3 weeks-of-age, four birds per pen were moved to wire cages. From 3 to 4 weeks of age, birds were fed a commercial broiler grower/finisher ration containing 19% crude protein and 3200 kcal metabolizable energy/kg. At 4 weeks of age, birds were fed a special high-protein ration that contained 25% crude protein and 3250 kcal ME/kg feed (See Table 1). […] During the experimental period (5 to 7 weeks of age), individual body weights and feed consumption were determined at weekly intervals for calculation of average daily gain (ADG), average daily feed consumption (ADFC) and gain-to-feed ratio (GTF).
Hormone treatments. […] Synthetic human pancreatic growth releasing factor (hpGRF1-44) was obtained from Pitman-Moore, Inc. (Terre Haute, IN). […] Begining at 35 days of age, broiler cockerels were given three daily intramuscular injections of buffer (0.05M sodium acetate, pH 5.0) or GRF dissolved in buffer (10 μg/kg body weight) each day at 0800, 1600, and 2400 hr. Each bird was weighed a 3 day intervals to adjust GRF dosage.
At 49 days of age, chickens were starved for 24 hours and killed for determination of final body, abdominal fat pad, and liver weights. Carcasses from one-half of the birds in each pen (2 birds/pen) were frozen for determination of body composition by proximate analysis. Each frozen carcass, including the liver and abdominal fat, was ground twice in meat grinder fitted with a one-quarter inch dye (Biro Model 5, Biro Mfg. Co., Marblehead, OH). Aliquots of the ground meat were dried at 80° C. for moisture determination. Dried samples were analyzed for protein by macro-Kjeldahl, fat by ether extraction, and ash contents according to established analytical procedures. Body composition data are presented as a percent of final body weight at 7 weeks of age.
Statistical analyses. All data were analyzed with the pen as the experimental unit since dietary treatments were applied to the pen and feed consumption was determined for each pen. Least squares regression analysis was used to test for effects of treatments on ADG, ADFC, GTF, body weight and body composition. Significant differences (P<0.05) among treatments were determined by Fisher's least significant difference test.

[2] = Three daily intravenous injections of GRF and dietary T3: growth, feed efficiency, body composition (Example 2); assay type: in vivo, broiler chickens
Source text: Bird management. Day-old broiler cockerels (Ross X Arbor Acre strain) were obtained from a commercial hatchery (Longnecker Hatchery, Elizabethtown, PA) and randomly assigned in groups of four birds to pens in a heated-battery brooder. Chicks were provided with a commercial broiler-starter ration (Pennfield Corp., Lancaster, PA), containing 3100 kcal metabolizable energy/kg feed and 23% crude protein, and water ad libitum. At 3 weeks of age, birds were transferred to wire pens held in a controlled-environment room. From 3 to 7 weeks of age, birds were maintained under a 20L:4D light-dark cycle at 21° C. and continuously provided with water and a commercial broiler-finisher ration containing 3250 kcal metabolizable energy/kg feed and 20% crude protein. Broiler cockerels were given three daily intravenous injections of either buffer (0.1M phosphate buffer, pH 7.0; BC) or GRF dissloved in buffer (25 μg/kg body weight) at 0800, 1600, and 2400 hr.
Dietary T3 and GRF Treatments. Four treatments were randomly assigned to pens in a randomized-complete-block design with three replicate pens per treatment. […] All birds were weighted at three day intervals to adjust the daily GRF dosage. Recombinant-derived human growth hormone-releasing factor (rhGRF1-44) was obtained from Pitman-Moore, Inc. (Terre Haute, IN).
The average daily gain (ADG), average daily feed consuption (ADFC) and the gain-to-feed ratio (GTF) were determined for the two week period (5 to 7 weeks of age). At the end of the experiment (7 weeks of age), each bird was killed to obtain the final body, abdominal fat and liver weights. Carcasses were frozen for determination of body composition as described in Example 1.
Statistical analyses. A randomized-complete-block design was used in which the four treatments were replicated in three pens. The growth data were analyzed with the pen as the experimental unit, since feed comsumption was determined for each pen of four birds. Significant differences (P≤0.05) due to the main effect of treatment were determined by Fisher's Least Significant Difference test.

[3] = TRH 1 or 10 μg/kg/day, GRF 10 μg/kg/day i.v., 21 days, cited from earlier work
[4] = 5 to 7 weeks of age, T3 0.25 ppm, GRF 10 μg/kg i.m. 3x daily, mean ± SEM of four pens
[5] = 7 weeks of age, i.m. GRF, four pens (2 birds/pen)
[6] = 5 to 7 weeks of age, T3 0.25 ppm, GRF 25 μg/kg i.v. 3x daily, mean ± SEM of three pens
[7] = 7 weeks of age, i.v. GRF, mean ± SEM of twelve cockerels
[8] = 7 weeks of age, i.v. GRF, twelve cockerels

## CC[C@H](C)[C@H](NC(=O)[C@H](C)NC(=O)[C@H](CC(=O)O)NC(=O)[C@H](C)NC(=O)[C@@H](N)Cc1ccc(O)cc1)C(=O)N[C@@H](Cc1ccccc1)C(=O)N[C@H](C(=O)N[C@@H](CC(N)=O)C(=O)N[C@@H](CO)C(=O)N[C@@H](Cc1ccc(O)cc1)C(=O)N[C@@H](CCCNC(=N)N)C(=O)N[C@@H](CCCCN)C(=O)N[C@H](C(=O)N[C@@H](CC(C)C)C(=O)NCC(=O)N[C@@H](CCC(N)=O)C(=O)N[C@@H](CC(C)C)C(=O)N[C@@H](CO)C(=O)N[C@@H](C)C(=O)N[C@@H](CCCNC(=N)N)C(=O)N[C@@H](CCCCN)C(=O)N[C@@H](CC(C)C)C(=O)N[C@@H](CC(C)C)C(=O)N[C@@H](CCC(N)=O)C(=O)N[C@@H](CC(=O)O)C(=O)N[C@H](C(=O)N[C@@H](CCSC)C(=O)N[C@@H](CO)C(=O)N[C@@H](CCCNC(=N)N)C(=O)N[C@@H](CCC(N)=O)C(=O)N[C@@H](CCC(N)=O)C(=O)NCC(=O)N[C@@H](CCC(=O)O)C(=O)N[C@@H](CO)C(=O)N[C@@H](CC(N)=O)C(=O)N[C@@H](CCC(N)=O)C(=O)N[C@@H](CCC(=O)O)C(=O)N[C@@H](CCCNC(=N)N)C(=O)NCC(=O)N[C@@H](C)C(=O)N[C@@H](CCCNC(=N)N)C(=O)N[C@@H](C)C(=O)N[C@@H](CCCNC(=N)N)C(=O)N[C@@H](CC(C)C)C(N)=O)[C@@H](C)CC)C(C)C)[C@@H](C)O [GRF]
[1]; 5 to 7 weeks of age, T3 0.25 ppm in feed, GRF 10 μg/kg i.m. three times daily, 25% protein ration, mean ± SEM of four pens
  ADG (average daily weight gain): 84.9 ± 5.4
[1]; [4]
  ADFC (average daily feed consumption): 188.6 ± 3.9
  GTF (gain-to-feed ratio): 0.449 ± 0.02
[1]; 7 weeks of age, T3 0.25 ppm, GRF 10 μg/kg i.m. 3x daily, mean ± SEM of four pens
  Final body weight BW: 2.88 ± 0.06 kg
[1]; [5]
  Body composition: ash: 2.27 ± 0.05 % BW
  Body composition: fat: 11.4 ± 0.63 % BW
  Body composition: protein: 17.2 ± 0.16 % BW
  Body composition: water: 67.0 ± 0.50 % BW
[1]; 7 weeks of age, i.m. GRF, mean ± SEM of four pens
  Relative weight of liver: 2.09 ± 0.06 % BW
[1]; 7 weeks of age, i.m. GRF, mean ± SEM of four pens, listed as CF + GRF
  Relative weight of abdominal fat pad: 1.48 ± 0.17 % BW
[1]; 7 weeks of age, i.m. GRF, mean ± SEM of four pens, listed as CF+GRF
  Relative weight of abdominal fat pad: 1.48 % BW
[1]; dietary T3 or daily i.m. GRF
  Effect on ADG, ADFC or GTF: no effect
[2]; 5 to 7 weeks of age, T3 0.25 ppm in feed, GRF 25 μg/kg i.v. three times daily, mean ± SEM of three pens
  ADG (average daily weight gain): 67.3 ± 1.9
[2]; [6]
  ADFC (average daily feed consumption): 155.1 ± 1.1
  GTF (gain-to-feed ratio): 0.434 ± 0.010
[2]; [7]
  Final body weight BW: 2.79 ± 0.08 kg
  Relative weight of abdominal fat: 1.74 ± 0.17 % BW
  Relative weight of liver: 2.07 ± 0.05 % BW
[2]; [8]
  Body composition: ash: 2.44 ± 0.04 % BW
  Body composition: fat: 12.1 ± 0.50 % BW
  Body composition: protein: 18.9 ± 0.15 % BW
  Body composition: water: 66.2 ± 0.36 % BW
[2]; GRF treatment alone, i.v.
  Effect on growth rate, feed efficiency or body composition: did not have any effect
[2]; dietary T3 or daily i.v. GRF alone, or in combination
  Effect on ADG, ADFC or the GTF ratio: did not significantly affect
[3]
  Plasma GH levels: elevated
[3]; alone or in combination
  Growth rate and feed efficiency: failed to stimulate growth rate or improve feed efficiency
